These are yes or no findings as the source states them, for the method shown. In cells and extracts the contact can be indirect. Some entries that bind do so weakly or less than the wild type.
Molecular target: Sec61β (endogenous, HEK 293) (human (endogenous in HEK 293)) (UniProt P60468)
Test: co-IP; non-transfected HEK 293 cells with or without 10 mM DTT for 2 hr, lysed in 50 mM Tris-HCl pH 8.0, 150 mM NaCl, 1% digitonin; IP with anti-Sec61β (control anti-GFP) on protein-A agarose; immunoblot

Sequences of proteins named here, by UniProt entry; tags and fusion partners are left off. Residues count along the entry.
UniProt P60468: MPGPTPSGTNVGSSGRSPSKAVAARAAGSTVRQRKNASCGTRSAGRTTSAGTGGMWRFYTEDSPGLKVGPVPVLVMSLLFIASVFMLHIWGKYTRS
UniProt O75460, residues 19-977: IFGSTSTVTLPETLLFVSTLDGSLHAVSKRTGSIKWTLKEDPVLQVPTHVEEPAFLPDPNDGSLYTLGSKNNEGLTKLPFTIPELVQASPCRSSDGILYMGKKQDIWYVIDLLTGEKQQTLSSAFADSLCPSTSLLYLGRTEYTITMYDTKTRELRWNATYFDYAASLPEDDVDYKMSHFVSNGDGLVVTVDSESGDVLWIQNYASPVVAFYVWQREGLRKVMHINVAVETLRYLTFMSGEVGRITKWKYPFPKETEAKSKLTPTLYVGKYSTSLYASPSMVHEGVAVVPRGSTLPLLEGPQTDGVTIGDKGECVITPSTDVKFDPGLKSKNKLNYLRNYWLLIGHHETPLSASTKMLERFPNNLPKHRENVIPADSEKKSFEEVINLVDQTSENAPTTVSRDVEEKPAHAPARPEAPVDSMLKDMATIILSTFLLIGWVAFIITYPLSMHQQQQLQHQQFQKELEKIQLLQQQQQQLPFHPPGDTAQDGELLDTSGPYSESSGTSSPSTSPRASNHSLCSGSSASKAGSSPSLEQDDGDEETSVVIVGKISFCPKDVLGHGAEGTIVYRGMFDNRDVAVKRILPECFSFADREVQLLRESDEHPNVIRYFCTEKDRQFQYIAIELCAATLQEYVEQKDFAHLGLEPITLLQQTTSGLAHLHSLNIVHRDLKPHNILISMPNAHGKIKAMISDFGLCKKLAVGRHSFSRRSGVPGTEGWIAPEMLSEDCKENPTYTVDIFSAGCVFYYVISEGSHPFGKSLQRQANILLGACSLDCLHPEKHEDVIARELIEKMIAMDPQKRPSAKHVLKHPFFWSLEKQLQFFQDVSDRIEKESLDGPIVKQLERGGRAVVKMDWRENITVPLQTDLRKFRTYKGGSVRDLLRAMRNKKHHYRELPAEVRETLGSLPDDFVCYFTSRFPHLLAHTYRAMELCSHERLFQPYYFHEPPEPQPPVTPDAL

binding: binds
Substance: endogenous Ire1α (from UniProt O75460 19-977) (enzyme)
